No constants are given. Whether binding was seen depends on the method and setting. Binding seen in cells or lysates may run through a third protein. These calls come from enrichment with a bait or labelling near it, and not all partners need be listed.
Legend:
Assay in all cases: affinity purification with mass spectrometry; eGFP-Rab28 (WT, Q72L or T26N) held on GFP-Trap beads from 5 dpf larval whole-eye lysates (100 eyes per replicate); IP lysis buffer 50 mM Tris HCl pH 7.5, 150 mM NaCl, 10 mM MgCl2, 1% NP-40, 1 mM DTT; 4°C, 2 h or overnight; on-bead trypsin digest, Q-Exactive; LFQ, t-test against eGFP only control
[1] = target: eGFP-Rab28 (wild type) (zebrafish) (UniProt Q7ZVW0)
[2] = target: eGFP-Rab28 Q72L (GTP-preferring) (zebrafish) (UniProt Q7ZVW0)
[3] = target: eGFP-Rab28 T26N (GDP-preferring) (zebrafish) (UniProt Q7ZVW0)

Protein sequences, listed by entry. Tags and fused reporters are not part of them.
UniProt E7F6Z2: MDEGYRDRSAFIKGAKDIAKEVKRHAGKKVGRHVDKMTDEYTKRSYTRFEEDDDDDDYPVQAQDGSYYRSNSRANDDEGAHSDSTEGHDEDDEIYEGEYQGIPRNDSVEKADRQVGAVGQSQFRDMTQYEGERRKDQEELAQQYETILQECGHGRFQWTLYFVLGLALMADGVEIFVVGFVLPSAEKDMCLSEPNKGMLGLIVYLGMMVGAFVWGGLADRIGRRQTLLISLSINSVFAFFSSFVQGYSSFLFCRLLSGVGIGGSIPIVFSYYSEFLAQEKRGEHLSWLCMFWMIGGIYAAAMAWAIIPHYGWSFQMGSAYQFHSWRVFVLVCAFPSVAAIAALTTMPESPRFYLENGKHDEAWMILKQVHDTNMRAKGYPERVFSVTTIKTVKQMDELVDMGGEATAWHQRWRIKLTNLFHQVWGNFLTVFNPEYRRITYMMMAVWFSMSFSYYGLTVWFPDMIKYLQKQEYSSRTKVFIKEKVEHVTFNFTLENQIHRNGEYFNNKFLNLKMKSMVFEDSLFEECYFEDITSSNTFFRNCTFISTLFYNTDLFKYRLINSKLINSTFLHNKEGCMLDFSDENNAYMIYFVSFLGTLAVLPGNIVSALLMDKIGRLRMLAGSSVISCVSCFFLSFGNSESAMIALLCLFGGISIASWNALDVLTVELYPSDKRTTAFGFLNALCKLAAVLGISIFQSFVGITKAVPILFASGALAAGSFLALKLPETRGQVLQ

binding [1]: binds
binding [2]: binds
binding [3]: binds
Substance: Synaptic vesicle glycoprotein 2A (from UniProt E7F6Z2 1-733)
